These results are taken from patent EP3069725A1, “GLORIOSA SUPERBA L. EXTRACTS, COMPOSITIONS AND USE THEREOF” (priority 2015, dated 2016).

Values after ≈ are worked out from the molar mass of the structure shown.

The test system of one assay is cancer cells. As to conditions: literature comparison with colchicine; cited from earlier work.
The test system of assay [1] is murine pancreatic cancer cells PANC02. In words: cells. As to conditions: Mus musculus, Panc02, 24 h.

On to `COc1c(O)cc2c(c1OC)-c1ccc(OC)c(=O)cc1[C@@H](NC(C)=O)CC2` [3-O-demethylcolchicine], for which, in the assay with cancer cells, the in vivo potency was 3.6 µmol/kg.

On to `COc1cc2c(c(OC)c1OC)-c1ccc(OC)c(=O)cc1[C@@H](NC(C)=O)CC2` [COL, colchicine], for which the midpoint of inhibition in assay [1], the IC50, lay at 0.098 ± 0.004 µg/mL (≈ 0.245 µM).

In general, IC50 refers to the midpoint of a concentration-inhibition curve. Higher therefore signals weaker potency.
